Data as given in paper PMC10679859.

Chains of the proteins cited; added tags and fusions are not shown. Lines headed by an entry give the natural chain unless they say otherwise; changes in a name come on top.
UniProt P13010: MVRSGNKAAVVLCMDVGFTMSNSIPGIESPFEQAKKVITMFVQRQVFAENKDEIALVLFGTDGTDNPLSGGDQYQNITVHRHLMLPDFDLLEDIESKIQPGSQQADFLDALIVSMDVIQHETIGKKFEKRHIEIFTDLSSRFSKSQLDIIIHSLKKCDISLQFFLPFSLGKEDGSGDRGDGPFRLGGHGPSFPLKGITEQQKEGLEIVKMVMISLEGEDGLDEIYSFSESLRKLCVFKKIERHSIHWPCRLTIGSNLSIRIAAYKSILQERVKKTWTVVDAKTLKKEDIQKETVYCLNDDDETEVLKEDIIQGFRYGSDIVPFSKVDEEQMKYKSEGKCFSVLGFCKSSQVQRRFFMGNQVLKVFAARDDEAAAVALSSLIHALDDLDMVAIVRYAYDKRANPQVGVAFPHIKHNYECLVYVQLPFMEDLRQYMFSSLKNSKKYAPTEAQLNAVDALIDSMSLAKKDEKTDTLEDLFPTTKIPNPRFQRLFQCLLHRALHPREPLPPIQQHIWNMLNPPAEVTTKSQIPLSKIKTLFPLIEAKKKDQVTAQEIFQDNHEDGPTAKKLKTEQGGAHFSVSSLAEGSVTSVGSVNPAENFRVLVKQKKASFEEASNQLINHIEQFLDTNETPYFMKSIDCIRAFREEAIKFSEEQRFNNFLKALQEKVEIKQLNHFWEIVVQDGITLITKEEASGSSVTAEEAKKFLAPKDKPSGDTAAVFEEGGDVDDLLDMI

What was measured:
[1] = target: XRCC5 (X-ray repair cross-complementing protein 5) (UniProt P13010); assay: EMSA supershift (anti-XRCC5); conditions: SH-SY5Y nuclear extract, 5 mM MgCl2, poly(dI-dC); EMSA: 5 ug SH-SY5Y nuclear extract, 1x LightShift binding buffer, 2.5% glycerol, 5 mM MgCl2, 50 ng/ul poly(dI-dC), 0.05% NP-40, 20 fmol probe, RT 30 min; protein in an extract
[2] = target: XRCC5 (X-ray repair cross-complementing protein 5) (UniProt P13010); assay: DNA pull-down, MS and Western blot; conditions: SH-SY5Y nuclear extract, poly(dI-dC), 4 C overnight, pull-down: 60 mM KCl, 12 mM HEPES pH 7.9, 25 mM Tris-HCl pH 7.5, 1 mM EDTA, 5% glycerol, 100 mM NaCl, 1 mM DTT, 10 ng/ul poly(dI-dC), protein in an extract

Row | Sequence | binding result [1] | binding result [2]
1 | AGCCCCATGGGCTCTCCTCACCTGGCTGGGGCATGTGGGG (double strand) [rs148582811-C probe] | binds | binds
2 | AGCCCCATGGGCTCTCCTCATCTGGCTGGGGCATGTGGGG (double strand) [rs148582811-T probe] | binds | binds

Construct, isoform or probe ends are uncertain for at least one entry. Results from cells or extracts need not show a direct contact. For some of these results: At least one verdict rests on a figure or table, not on a statement of the authors.
